“And” between values parts separate entries of the source, which are not always exact repeats. Equal values may be shown once. The campaign covered roughly 580,000 compounds. About 6,100 (1.1%) were called active. Not shown: some 15% with an inconclusive outcome. Calls follow the shape of the dose curve; as a rule, active = well fitted inhibition curve with a large enough effect; inconclusive = small, poorly fitted or top-dose-only effect, or another doubt; inactive = no such curve, though single readings can be large or run the other way. Only a part is listed here, and it is no random draw. Where no call is shown, the source filed none.
Biological target: Polyunsaturated fatty acid lipoxygenase ALOX12 (Homo sapiens) (UniProt P18054)
Assay: Primary qHTS assay for inhibitors of human arachidonate 12S-lipoxygenase (ALOX12): Round 2
Settings: purified 12hLO, xylenol orange hydroperoxide absorbance; activity change, negative = inhibition: at 0.00344 µM (top of the series)
Summary of the method: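 Hydroperoxide product was detected by ferrous iron/xylenol orange as the 573 to 405 nm absorbance ratio. Arachidonic acid at 40 uM (final) was turned over for 30 min at room temperature by 150 nM human 12hLO, pH 7.0 Hepes buffer, after 15 min compound preincubation.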
% is scaled to controls: 0 for no effect and ±100 for the full control effect; potency is read from the fitted curve at half-maximal effect.

By UniProt entry, the sequences of proteins in these tests, tags left out. Where a name states a change or a piece, a line headed by the entry shows the natural chain unless it says otherwise.
UniProt P18054: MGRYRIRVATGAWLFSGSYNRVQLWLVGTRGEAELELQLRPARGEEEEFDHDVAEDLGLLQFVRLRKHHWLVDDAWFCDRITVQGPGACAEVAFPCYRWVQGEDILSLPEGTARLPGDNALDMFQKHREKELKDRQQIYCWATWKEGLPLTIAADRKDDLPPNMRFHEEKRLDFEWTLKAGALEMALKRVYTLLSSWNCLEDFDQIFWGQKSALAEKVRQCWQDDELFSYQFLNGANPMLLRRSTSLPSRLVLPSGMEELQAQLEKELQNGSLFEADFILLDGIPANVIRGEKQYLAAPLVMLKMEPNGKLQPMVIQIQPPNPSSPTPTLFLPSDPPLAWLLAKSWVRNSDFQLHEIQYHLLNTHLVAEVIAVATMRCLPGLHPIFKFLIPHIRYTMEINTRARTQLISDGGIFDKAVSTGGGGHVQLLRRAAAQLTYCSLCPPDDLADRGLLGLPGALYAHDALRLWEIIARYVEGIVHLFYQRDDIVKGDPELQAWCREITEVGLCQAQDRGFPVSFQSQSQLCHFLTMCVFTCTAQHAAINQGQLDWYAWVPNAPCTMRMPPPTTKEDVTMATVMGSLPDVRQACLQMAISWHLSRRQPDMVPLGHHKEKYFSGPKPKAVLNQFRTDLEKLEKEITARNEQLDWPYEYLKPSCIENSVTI

With `Cc1cc(C)cc(OCC2CNC(=O)O2)c1` (stereo not given) as the compound, how does the activity change, negative = inhibition read?
Its activity change, negative = inhibition is 20.5%.

Which activity change, negative = inhibition does the source give for `CC(=O)O[C@H]1C[C@@H]2CC[C@@H]3[C@H](CC[C@@]4(C)[C@H]3C[C@H]([N+]3(C)CCCCC3)[C@@H]4OC(C)=O)[C@@]2(C)C[C@@H]1N1CCCCC1` here?
The activity change, negative = inhibition was -13.7%.

For `C[C@@H](O)[C@H]1C(=O)N2C(C(=O)O)=C(S[C@@H]3CN[C@H](C(=O)N(C)C)C3)[C@H](C)[C@H]12`, which activity change, negative = inhibition is on record?
Its activity change, negative = inhibition is 11.2% and 24.9%.

For `C[C@H](NC(CCc1ccccc1)C(=O)O)C(=O)N1CCC[C@H]1C(=O)O` (stereo not given in full), which activity change, negative = inhibition is on record?
The activity change, negative = inhibition was -33.6%.

How did the activity change, negative = inhibition turn out when `C[C@H]1O[C@@H](n2cc(F)c(=O)[nH]c2=O)[C@H](O)[C@@H]1O` was run?
The activity change, negative = inhibition was -14.7%.

How did the activity change, negative = inhibition turn out when `Nc1c(CC(=O)O)cccc1C(=O)c1ccc(Br)cc1` was run?
Its activity change, negative = inhibition is 3.27%.

How did the activity change, negative = inhibition turn out when `OCCN1CCN(CCCN2c3ccccc3C=Cc3ccccc32)CC1` was run?
Its activity change, negative = inhibition is -1.55%.

With `O=C(NCCN1CCOCC1)c1ccc(Cl)cc1` as the compound, how does the activity change, negative = inhibition read?
Its activity change, negative = inhibition is 25.1%.

With `O=C(CSc1ccc(-c2ccco2)nn1)c1ccc(F)cc1` as the compound, how does the Potency read?
Its Potency is active: 28.2 µM.

Which activity change, negative = inhibition does the source give for `NCCNCCNCCN` here?
The activity change, negative = inhibition was 7.36%.

`CCN1CCCC(OC(=O)C(c2ccccc2)c2ccccc2)C1` (stereo not given) was tested. Which activity change, negative = inhibition did it give?
Its activity change, negative = inhibition is -22.4%.

For `Nc1ccc(C(=O)O)cc1`, which activity change, negative = inhibition is on record?
Its activity change, negative = inhibition is -8.37%.

With `COc1ccc(CN2CCCCCC2)cc1Br` as the compound, how does the Potency read?
The Potency was active: 1 µM.

For `COc1c(C)c2c(c(O)c1C/C=C(\C)CCC(=O)O)C(=O)OC2`, which activity change, negative = inhibition is on record?
Its activity change, negative = inhibition is 7.39%.

Which activity change, negative = inhibition does the source give for `O=C(O)c1ccc(S(=O)(=O)N(Cl)Cl)cc1` here?
Its activity change, negative = inhibition is 16.2%.

For `CN1[C@@H]2CC[C@H]1CC(OC(=O)c1c[nH]c3ccccc13)C2` (stereo not given in full), which activity change, negative = inhibition is on record?
The activity change, negative = inhibition was -4.29%.

Which activity change, negative = inhibition does the source give for `COc1cc(C(C)=O)ccc1OCCCN1CCC(c2noc3cc(F)ccc23)CC1` here?
Its activity change, negative = inhibition is -23.5%.

How did the activity change, negative = inhibition turn out when `Cc1cc(C)c(NC(=O)CN(CC(=O)O)CC(=O)O)c(C)c1Br` was run?
Its activity change, negative = inhibition is 16%.

`O=NN(CCCl)C(=O)NCCCl` was tested. Which activity change, negative = inhibition did it give?
Its activity change, negative = inhibition is 20.4%.

Which activity change, negative = inhibition does the source give for `O=C(O)Cc1ccc(OCCNC[C@H](O)c2ccccc2)cc1` here?
Its activity change, negative = inhibition is -9.55%.

`S=C(NCCC(c1ccccc1)c1ccccc1)Nc1ccccc1` was tested. Which Potency did it give?
The Potency was active: 35.5 µM.

Which activity change, negative = inhibition does the source give for `CC(O)COc1ccccc1` (stereo not given) here?
Its activity change, negative = inhibition is 7.26%.

`C#C[C@]1(O)CC[C@H]2[C@@H]3CCc4cc(O)ccc4[C@H]3CC[C@@]21C` was tested. Which activity change, negative = inhibition did it give?
Its activity change, negative = inhibition is -24.1%.

With `CCCCN(CCCC)CCC(O)c1cc2c(Cl)cc(Cl)cc2c2cc(C(F)(F)F)ccc12` (stereo not given) as the compound, how does the activity change, negative = inhibition read?
The activity change, negative = inhibition was -18.8%.

With `Cc1ccc(NNC2CC(=O)N(c3cccc(Cl)c3)C2=O)cc1` (stereo not given) as the compound, how does the Potency read?
The Potency was active: 20 µM.

`CCOC(=O)C1=C(C)NC(C)=C(C(=O)OCC)C1c1ccccc1/C=C/C(=O)OC(C)(C)C` was tested. Which activity change, negative = inhibition did it give?
Its activity change, negative = inhibition is -28.6%.

How did the activity change, negative = inhibition turn out when `COc1ccc(C(=O)CC(=O)c2ccc(C(C)(C)C)cc2)cc1` was run?
Its activity change, negative = inhibition is 45.3%.

`CCC(C(=O)O)c1ccc(N2Cc3ccccc3C2=O)cc1` (stereo not given) was tested. Which activity change, negative = inhibition did it give?
Its activity change, negative = inhibition is 19.8%.

With `CC(=O)OCC(=O)[C@@]1(O)[C@H](C)C[C@H]2[C@@H]3CCC4=CC(=O)C=C[C@]4(C)[C@@]3(F)[C@@H](O)C[C@@]21C` as the compound, how does the activity change, negative = inhibition read?
Its activity change, negative = inhibition is 30%.

— PubChem BioAssay AID1671190 (National Center for Advancing Translational Sciences (NCATS), 2021)
